# Results from the supplement of paper PMC5949888.
# ± gives the standard deviation of the averaged measurements. Most values lie at the floor of the assay. Slopes are relative: functional sequences can read slightly below zero.
# Test system: Saccharomyces cerevisiae PS128 hsf1 delta, HSF1(1-493) fusion
# Test: growth estimate (transactivation domain function in HSF1 fusion, heat-shock survival) (a.u. (slope of normalised read count over time)); higher = stronger growth at 37°C, i.e. more transactivation activity
# Conditions: library: random library
# Experimental: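 Random 60-nt DNA library encoding peptides of up to 20 aa, fused to the C-terminus of yeast HSF1 residues 1-493 (C-terminal TAD deleted) and expressed from the native HSF1 promoter on a CEN plasmid in hsf1-deleted S. cerevisiae PS128. Cells were selected at 37°C on -trp 5-FOA plates for 0, 2, 4, 6 and 8 days and amplicons were sequenced. Growth estimate is the slope of a robust linear fit of total-sum-normalised read counts (normalised to the first time point) over time, using at least 2 replicates. Sequences are classed functional (TAD activity) above a threshold of -0.13, set from stop-codon control sequences.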
row,Substance,growth estimate
1,ASCDKEFIW,< -0.25
2,VTRAGGKPCAGIEKHKRVRL,< -0.25
3,PVGACTSDFSYRCQPVEHLV,< -0.25
4,TQNDSRKKGEPRESVC,-0.246
5,NGRIDVSLVLGFVGHPC,< -0.25
6,VSVCMKSVHKRVGPKTVFLL,< -0.25
7,IYSWALRRCSGLDLQNKLRG,< -0.25
8,SLNVYERGSSCWKNATL,< -0.25
9,ATYSV,< -0.25
10,PNIANKFTPSTAGTGPNIRQ,< -0.25
11,ACRGGTIDRKSWPHRGLGSP,< -0.25
12,RPAGKRTPRRTGAS,< -0.25
13,RSARSIS,< -0.25
14,MYAGFTGISEESGC,< -0.25
15,VGGIFRAMDEMNSIVSGE,< -0.25
16,NQACKRDRRKFLVPCPCRSV,< -0.25
17,GGSLDSVAAAEDPAPSSIWI,< -0.25
18,AMSSYVGASCHAFLVRGSQA,< -0.25
19,GLFPNHHETSLPDPFCLGHA,< -0.25
20,KDVRQHRGCGSANGPWKPQG,< -0.25
21,PFG,-0.248 ± 0.003
22,SSVCWKSLNKERR,< -0.25
23,RRSWLLLGSMSSYILPQALC,< -0.25
24,VNCLYTEKLRVSAGSPGKRA,< -0.25

row,Substance,growth estimate
1,VYTGRLLQSVDYVRLRKTSF,< -0.25
2,TLGMAKAVKSPAASCQLRSP,< -0.25
3,TPGGAPCHKRSFAPNTAPGL,-0.246
4,LYA,< -0.25
5,MGNAANKGDSRPSGSQ,< -0.25
6,SAGRGEAALGFVFFNAGVNQ,< -0.25
7,AAYSGYQLEQRMSELAERHS,< -0.25
8,VSSNTLRSSPGGHGTILTCG,< -0.25
9,GLQSRIRLEEVVSRNTMTSQ,< -0.25
10,FESSSRP,< -0.25
11,EVLRVSAPQENPARQTGVGR,< -0.25
12,VTTSGSRSIG,< -0.25
13,NVLFLEPRLGILEGGRYD,< -0.25
14,LSVSAIMCESLNFHAEILGR,< -0.25
15,PRYLSRSGKRRRRSNCYCPS,< -0.25
16,DCGFVNYMIGLVYTKFRRLL,-0.229
17,QNVGG,< -0.25
18,GQGGIFRGSLGARSCGEVSC,< -0.25
19,CVVYPVCSGSRHRVKLVCRP,< -0.25
20,ELGLQRTCRYWLTGKTSARV,< -0.25
21,GGV,< -0.25
22,LVRLRSPGSVRELNTAVNQA,< -0.25
23,SAKASGEG,< -0.25
24,NRCLFRRRRFSRSSSRLGDQ,< -0.25

row,Substance,growth estimate
1,WTGLWGSGC,< -0.25
2,LEEACTGLRALCPRE,< -0.25
3,LGPKLG,< -0.25
4,IRTFAYPSGRS,< -0.25
5,GGTPDVPDSMTGRLPTV,< -0.25
6,SGIVD,< -0.25
7,SEAGRYSLAKTISTIGGVGA,< -0.25
8,RRGVYRPVSRGGLSIG,< -0.25
9,IAGW,< -0.25
10,RVRSTHCSMAPDDNSIALLL,< -0.25
11,NLRADVAPTVKTAWCSRERG,< -0.25
12,GLHQDGPVFARIGYRLLFPR,< -0.25
13,LPV,< -0.25
14,AKRDRMGDESLVTLMLTCNV,< -0.25
15,WFEE,-0.231
16,PVVSPDGLGWAPYLDRPGAY,< -0.25
17,ASLQELASKSPG,< -0.25
18,VLVWFHPETLNTTSCTS,-0.248
19,KQFARCRPPPRWAGRL,-0.182
20,CLIGAVCLPEEHRSVGTL,< -0.25
21,KFVNVRRCTHSPRVDAPREP,< -0.25
22,EIFSGDRARGRGDMQCLVKR,< -0.25
23,ENMWGG,< -0.25
24,ECSHSPVLLPNKRMRTNTYK,< -0.25

row,Substance,growth estimate
1,GIPSRPLLREFCLASTGIHG,< -0.25
2,PNCRKTGRGRGRVTWSFTSS,< -0.25
3,IAKS,< -0.25
4,DYVPNICTQVLDREVTGHLD,0.154
5,TSHLKSMQSLSLGRVHKHG,< -0.25
6,PLVLPWTSTSGGETVLL,< -0.25
7,RIRSTTGERRDGASPIKCVR,< -0.25
8,SYDRPVPRFRVTAVVTRLPV,< -0.25
9,FGLESYGRSPDCIVLVFQTH,< -0.25
10,LNTLNRAHDSHGRWVQYFLY,< -0.25
11,GIGGDLHSGRRQFCPRSTPH,< -0.25
12,HNPSLYAVHWGTNGRWTL,< -0.25
13,FRYGLTRNSLIESGGQLGIG,< -0.25
14,RAKGSC,< -0.25
15,ASVDLFSLLCIRR,< -0.25
16,TYRHVPAADVATDGQNSLVR,< -0.25
17,LIGSPWGCNRGDTS,< -0.25
18,GVSKFWTVIR,< -0.25
19,GIYTFMRGGRIPLHTIFPAA,< -0.25
20,QKGSTHGSLLRMWRANEQYG,< -0.25
21,AVRETDTVRGELHRLGPQVG,< -0.25
22,QSAGST,< -0.25
23,GPRPAVRIYLPVSTPRPCRP,< -0.25
24,DASVT,< -0.25

row,Substance,growth estimate
1,YNCAIRSFLAW,-0.246
2,TALPQ,< -0.25
3,GDYAIQGRLADRINLALPYR,< -0.25
4,GQRLFRAVGSTQDLRLAPYK,< -0.25
5,IPHYVSDSIRGQCRSATYGI,< -0.25
6,PPASPQWVGSRRCAKASRPM,< -0.25
7,MFNRV,< -0.25
8,GGAEWDAWYCELVMTVYVLR,< -0.25
9,LQGHTSGIPTSLTLCPAQVG,-0.0864
10,TRPS,< -0.25
11,SYF,< -0.25
12,NSAVRDVTANTTPYRNGILH,< -0.25
13,PSCSLPVRSPLLKECAAQIP,< -0.25
14,YGLGAVRS,-0.245
15,RSRSVFGKHICFGAAHSGSS,< -0.25
16,HPTC,< -0.25
17,YNEGRNLDGGSICDCSILRP,< -0.25
18,RVLHEQR,< -0.25
19,RFMPGANCSVRTRTIEGADQ,< -0.25
20,KITHLTP,-0.25
21,WAYLFCPL,< -0.25
22,VSERRSVQEKHR,< -0.25
23,YGRSHQRESCSTWWRWHLPS,< -0.25
24,PKRTMARTELESLSELRESR,< -0.25

# Individual results from the list:
# growth estimate with YGRSHQRESCSTWWRWHLPS reads < -0.25
# growth estimate with VSERRSVQEKHR reads < -0.25
# growth estimate with NSAVRDVTANTTPYRNGILH reads < -0.25

# (cont.)

row,Substance,growth estimate
1,SGRVEYLGLVGVRRRRVTTQ,< -0.25
2,KGGAGSGLSYR,< -0.25
3,RTTY,< -0.25
4,DLPCSVSCWLDRV,< -0.25
5,IGLMGLWIWQPTSPGVADSG,< -0.25
6,IMHIKH,< -0.25
7,CREGRFLTSPGSGIDANQLP,< -0.25
8,DSRQRGDVR,< -0.25
9,WGSILDAVRDRFSRFTGTGG,< -0.25
10,SVGPFTGDFVIPMNNQQYYV,< -0.25
11,LSPM,< -0.25
12,PAKIAER,< -0.25
13,AGSVRYVEDCEFEPL,< -0.25
14,YRCRPEASKSGNQYVDGVYL,< -0.25
15,SLRDTKGLWDSQPEDYMVER,< -0.25
16,GLSRVGKKHCRLG,< -0.25
17,HREGTWFYLTLIRSKY,< -0.25
18,EKE,< -0.25
19,IGSPIDGLKFSLQ,< -0.25
20,VRCVNLCLGFFVESTRTPFH,< -0.25
21,GTSSFEEKALWQRVAVGSYR,< -0.25
22,HSVSGFSSAVWTTPSHLLVT,< -0.25
23,GGRMFHHHQVLSSSTCGIHW,-0.246
24,IFLKSQGPSSPAEGGSHGLL,< -0.25

row,Substance,growth estimate
1,WLVVLDRRQSRDERVFRAHL,-0.197
2,YLGVTTGVKTVFGLFKARTS,< -0.25
3,CTGELSMVHCGVIFHRPVRQ,< -0.25
4,RNSVTKSGLTA,< -0.25
5,VQNVMCEKPRLAPTKLVDSG,< -0.25
6,GMPVEDVRASSYAKFSPGRV,< -0.25
7,GITDWCELVSGRGRRLRNRA,< -0.25
8,PGIRHQGILNKFFLSYVL,< -0.25
9,LKQSNLPTSQSASQYNGSQS,< -0.25
10,GFK,< -0.25
11,TQGMQAIWPE,< -0.25
12,QAVSDSQRRVAIPVSVFPKP,< -0.25
13,MTGTFLS,< -0.25
14,LYGKAGDGRKTLSLYGGKRV,< -0.25
15,VMSQHYPSRPRMRHGDPTAT,< -0.25
16,PPRLTDVAP,< -0.25
17,GSTWLKLSQIAGLYLRTRLM,< -0.25
18,LVRAGSRERCK,< -0.25
19,DWITNSNGGN,< -0.25
20,SHWWNV,< -0.25
21,QHFGRMNLGRC,< -0.25
22,TGECRRFLMILSDNTVMFSS,< -0.25
23,KGD,-0.248 ± 0.003
24,PRK,< -0.25

# Rewritten with bars between the fields: entries from further up.
row | Substance | growth estimate
2 | YLGVTTGVKTVFGLFKARTS | < -0.25
3 | CTGELSMVHCGVIFHRPVRQ | < -0.25

# A section from the list above:
row,Substance,growth estimate
5,VQNVMCEKPRLAPTKLVDSG,< -0.25
6,GMPVEDVRASSYAKFSPGRV,< -0.25

# (continued)

row,Substance,growth estimate
1,GRVRFCRKQ,< -0.25
2,CHN,< -0.25
3,LRAYFTHRPHGLSRFGLSPT,< -0.25
4,YICSSRAMTLTCVVVYVRGR,< -0.25
5,IMCGSARKYVGGGLCQYMPR,< -0.25
6,SFYATYLSIIEV,< -0.25
7,HQEHRCRVPVTVQEVDIRKF,0.0382
8,PRVLGPLGVSYQTGLSQAVI,< -0.25
9,MRWVCRRLRVSGLGLEHSGG,< -0.25
10,GDRAEAAM,< -0.25
11,LVHRQIPITAGWVHSQSTRP,< -0.25
12,GCLGSGTSRSDSS,< -0.25
13,VPQPL,< -0.25
14,VTPIRRG,< -0.25
15,SIANQGGWYGGVGHRHVFAS,< -0.25
16,VIKPQRAQERFGTNASQFMV,< -0.25
17,LSEISNF,-0.23
18,INPNARSSQWK,< -0.25
19,GPSTRGARRYRLPVHG,< -0.25
20,LMSERSGQIGIMGATHLDRQ,< -0.25
